Measured values: the supplement of paper PMC11061612

Assays:
[1] = tested on: LU-99A (Non-Small Cell Lung Carcinoma); assay: Bliss excess, mean over the matrix (fraction); higher = more synergy
Procedure, shortened: (§1)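 Bliss excess equals the observed combination effect minus the expected value EA + EB − EA·EB, where EA and EB are the effects of each agent alone. Combination Emax is the second-highest inhibition within the matrix. Inhibition was scaled from CellTiter-Glo 2.0 luminescence, with 0 set by vehicle wells and 1 by blank wells, after 72 hours of two-drug dosing of cells plated in 1536-well plates.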

[2] = tested on: NCI-H1694 (Small Cell Lung Carcinoma); assay: as above
Procedure, shortened: as §1

Work on `COc1cc2ncnc(Nc3ccc(F)c(Cl)c3)c2cc1OCCCN1CCOCC1` [Gefitinib] + CC(C)n1c(=O)n(C)c2cnc3cc(F)c(-c4ccc(OCCCN5CCCCC5)nc4)cc3c21 [AZD1390] (first compound max 10 µM, 7x7, partner max 0.3 µM) yielded a Bliss excess [1] of -0.0618 and a Bliss excess [2] of -0.0503.
